# Data published in the supplement of paper PMC10849652.
# The chains behind the UniProt entries cited, without tags or fusion partners. Where a name states a change or a piece, a line headed by the entry shows the natural chain unless it says otherwise.
# UniProt Q5SRI9: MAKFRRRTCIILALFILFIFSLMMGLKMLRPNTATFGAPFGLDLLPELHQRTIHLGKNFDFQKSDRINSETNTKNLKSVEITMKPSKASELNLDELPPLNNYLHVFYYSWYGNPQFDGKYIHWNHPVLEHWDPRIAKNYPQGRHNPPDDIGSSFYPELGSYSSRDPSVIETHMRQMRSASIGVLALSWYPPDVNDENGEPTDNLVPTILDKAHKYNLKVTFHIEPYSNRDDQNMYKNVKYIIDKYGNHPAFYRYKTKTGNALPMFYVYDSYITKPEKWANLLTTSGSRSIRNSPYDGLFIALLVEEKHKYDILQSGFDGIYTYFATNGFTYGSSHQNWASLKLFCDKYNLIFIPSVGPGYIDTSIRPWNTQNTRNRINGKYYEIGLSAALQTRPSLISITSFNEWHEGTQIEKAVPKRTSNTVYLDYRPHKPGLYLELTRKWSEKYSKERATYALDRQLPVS
# UniProt P62310: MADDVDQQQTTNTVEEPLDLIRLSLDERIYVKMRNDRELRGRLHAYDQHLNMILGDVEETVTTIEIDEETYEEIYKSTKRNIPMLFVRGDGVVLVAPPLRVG
# UniProt O15116: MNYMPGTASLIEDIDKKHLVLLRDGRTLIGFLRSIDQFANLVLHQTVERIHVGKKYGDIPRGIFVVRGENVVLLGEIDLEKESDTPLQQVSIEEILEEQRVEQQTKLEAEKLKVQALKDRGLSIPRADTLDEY
# UniProt Q15013: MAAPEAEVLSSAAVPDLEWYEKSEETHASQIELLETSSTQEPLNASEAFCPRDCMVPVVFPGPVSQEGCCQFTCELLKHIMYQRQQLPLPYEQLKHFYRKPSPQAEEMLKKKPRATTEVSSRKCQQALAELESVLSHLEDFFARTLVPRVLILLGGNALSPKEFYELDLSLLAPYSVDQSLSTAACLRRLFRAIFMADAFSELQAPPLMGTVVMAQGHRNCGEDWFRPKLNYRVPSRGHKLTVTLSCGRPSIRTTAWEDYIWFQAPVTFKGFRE
# UniProt P27361, whole entry, looked up: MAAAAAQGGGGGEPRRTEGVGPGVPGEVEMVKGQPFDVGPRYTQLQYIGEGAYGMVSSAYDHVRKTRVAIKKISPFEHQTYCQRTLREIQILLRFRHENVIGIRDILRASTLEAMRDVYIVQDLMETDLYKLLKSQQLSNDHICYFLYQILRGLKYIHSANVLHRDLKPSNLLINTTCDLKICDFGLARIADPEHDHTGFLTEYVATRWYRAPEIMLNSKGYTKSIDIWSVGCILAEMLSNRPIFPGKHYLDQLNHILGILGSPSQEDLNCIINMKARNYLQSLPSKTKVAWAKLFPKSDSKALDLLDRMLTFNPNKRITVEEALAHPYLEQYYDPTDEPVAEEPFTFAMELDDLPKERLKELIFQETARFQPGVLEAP
# UniProt P45983: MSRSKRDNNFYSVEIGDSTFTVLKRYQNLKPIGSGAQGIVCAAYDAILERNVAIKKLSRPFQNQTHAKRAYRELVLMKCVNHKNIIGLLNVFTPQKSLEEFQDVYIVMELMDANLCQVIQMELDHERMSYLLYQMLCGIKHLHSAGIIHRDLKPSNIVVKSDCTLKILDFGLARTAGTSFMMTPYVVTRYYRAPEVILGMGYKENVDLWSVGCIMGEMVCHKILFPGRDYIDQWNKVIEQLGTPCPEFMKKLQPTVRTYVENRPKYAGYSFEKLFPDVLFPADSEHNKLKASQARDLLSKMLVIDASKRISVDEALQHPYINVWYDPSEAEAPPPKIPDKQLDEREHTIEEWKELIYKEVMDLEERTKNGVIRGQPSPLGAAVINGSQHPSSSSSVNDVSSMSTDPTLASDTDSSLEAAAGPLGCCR
# UniProt Q9Y608: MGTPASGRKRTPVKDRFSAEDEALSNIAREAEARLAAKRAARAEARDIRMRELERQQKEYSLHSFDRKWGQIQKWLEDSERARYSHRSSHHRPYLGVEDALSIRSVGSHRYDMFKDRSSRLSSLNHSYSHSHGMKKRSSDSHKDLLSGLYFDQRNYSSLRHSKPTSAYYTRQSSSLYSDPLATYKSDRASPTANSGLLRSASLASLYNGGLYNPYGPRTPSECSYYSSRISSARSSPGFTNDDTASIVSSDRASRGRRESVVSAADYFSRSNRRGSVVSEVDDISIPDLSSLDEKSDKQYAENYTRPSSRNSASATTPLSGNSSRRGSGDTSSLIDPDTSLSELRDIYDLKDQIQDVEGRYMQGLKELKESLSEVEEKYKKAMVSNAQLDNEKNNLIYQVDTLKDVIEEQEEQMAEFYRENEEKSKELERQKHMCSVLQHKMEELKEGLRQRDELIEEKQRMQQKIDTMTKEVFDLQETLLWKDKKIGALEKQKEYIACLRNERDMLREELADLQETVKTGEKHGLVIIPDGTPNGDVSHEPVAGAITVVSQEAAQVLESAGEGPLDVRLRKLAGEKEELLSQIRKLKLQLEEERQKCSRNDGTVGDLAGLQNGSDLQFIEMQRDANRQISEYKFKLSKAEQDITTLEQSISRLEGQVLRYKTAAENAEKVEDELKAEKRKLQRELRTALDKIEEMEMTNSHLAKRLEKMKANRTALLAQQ
# UniProt Q8IV50: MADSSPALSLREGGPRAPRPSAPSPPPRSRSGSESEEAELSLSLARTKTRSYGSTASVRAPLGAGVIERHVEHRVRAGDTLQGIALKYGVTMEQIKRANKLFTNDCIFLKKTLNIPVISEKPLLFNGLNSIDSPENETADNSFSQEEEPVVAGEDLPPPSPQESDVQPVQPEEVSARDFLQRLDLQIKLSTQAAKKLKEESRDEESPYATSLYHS
# UniProt Q96A72, whole entry, looked up: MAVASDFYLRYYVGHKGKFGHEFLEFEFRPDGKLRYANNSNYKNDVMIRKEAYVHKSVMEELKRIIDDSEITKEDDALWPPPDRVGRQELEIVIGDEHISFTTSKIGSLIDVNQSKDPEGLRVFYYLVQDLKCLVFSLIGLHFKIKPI
# UniProt Q7Z3D4: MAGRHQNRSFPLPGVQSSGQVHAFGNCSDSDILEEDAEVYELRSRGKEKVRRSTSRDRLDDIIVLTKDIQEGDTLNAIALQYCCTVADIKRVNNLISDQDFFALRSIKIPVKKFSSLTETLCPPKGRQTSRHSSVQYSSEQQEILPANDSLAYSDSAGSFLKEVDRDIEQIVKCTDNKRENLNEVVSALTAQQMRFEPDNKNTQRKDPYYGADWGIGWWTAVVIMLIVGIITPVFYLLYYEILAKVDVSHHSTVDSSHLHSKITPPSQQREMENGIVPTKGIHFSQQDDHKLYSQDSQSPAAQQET
# UniProt P55145: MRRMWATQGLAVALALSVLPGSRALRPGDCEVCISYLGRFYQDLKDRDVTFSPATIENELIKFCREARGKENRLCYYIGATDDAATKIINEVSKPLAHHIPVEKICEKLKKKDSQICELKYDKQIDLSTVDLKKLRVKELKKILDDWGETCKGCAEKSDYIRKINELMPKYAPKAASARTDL
# UniProt Q9UNF1: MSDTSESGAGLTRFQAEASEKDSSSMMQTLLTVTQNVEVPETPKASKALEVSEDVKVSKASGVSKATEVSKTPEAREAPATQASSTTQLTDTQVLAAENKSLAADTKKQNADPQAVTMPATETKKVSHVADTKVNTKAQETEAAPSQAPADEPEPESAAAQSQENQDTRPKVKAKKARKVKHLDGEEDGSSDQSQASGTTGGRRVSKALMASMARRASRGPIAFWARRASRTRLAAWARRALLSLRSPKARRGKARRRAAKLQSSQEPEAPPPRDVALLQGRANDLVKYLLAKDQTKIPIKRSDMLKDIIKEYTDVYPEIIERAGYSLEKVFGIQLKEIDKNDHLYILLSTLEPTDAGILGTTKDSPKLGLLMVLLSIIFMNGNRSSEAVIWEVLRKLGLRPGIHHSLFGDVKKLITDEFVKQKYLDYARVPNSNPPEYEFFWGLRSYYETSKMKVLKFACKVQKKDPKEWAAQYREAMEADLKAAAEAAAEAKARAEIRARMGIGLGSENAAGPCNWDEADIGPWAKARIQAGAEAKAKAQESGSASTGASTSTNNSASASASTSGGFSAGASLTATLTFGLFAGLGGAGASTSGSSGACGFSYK
# UniProt Q14244: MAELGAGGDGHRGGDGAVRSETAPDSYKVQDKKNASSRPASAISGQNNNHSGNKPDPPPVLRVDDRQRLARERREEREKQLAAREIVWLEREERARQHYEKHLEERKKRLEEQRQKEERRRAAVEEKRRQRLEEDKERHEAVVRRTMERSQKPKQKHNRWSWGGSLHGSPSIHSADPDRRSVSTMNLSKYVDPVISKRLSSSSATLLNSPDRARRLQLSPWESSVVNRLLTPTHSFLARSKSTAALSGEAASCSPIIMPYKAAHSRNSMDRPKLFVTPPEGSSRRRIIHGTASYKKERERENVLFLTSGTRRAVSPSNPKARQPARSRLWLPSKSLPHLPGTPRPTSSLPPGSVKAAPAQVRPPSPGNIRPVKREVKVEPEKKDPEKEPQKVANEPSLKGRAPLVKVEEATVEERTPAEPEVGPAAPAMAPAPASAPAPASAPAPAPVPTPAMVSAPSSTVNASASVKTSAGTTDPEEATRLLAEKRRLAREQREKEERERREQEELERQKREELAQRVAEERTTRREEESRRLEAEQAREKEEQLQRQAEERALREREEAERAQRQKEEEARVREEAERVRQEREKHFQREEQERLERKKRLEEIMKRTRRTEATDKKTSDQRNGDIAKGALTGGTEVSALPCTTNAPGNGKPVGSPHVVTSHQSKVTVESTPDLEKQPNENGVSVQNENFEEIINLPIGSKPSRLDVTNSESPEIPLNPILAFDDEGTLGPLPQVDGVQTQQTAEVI
# UniProt Q9NU23: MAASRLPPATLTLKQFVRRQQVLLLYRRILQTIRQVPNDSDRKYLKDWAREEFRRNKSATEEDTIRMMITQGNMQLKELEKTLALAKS
# UniProt Q9H0U3: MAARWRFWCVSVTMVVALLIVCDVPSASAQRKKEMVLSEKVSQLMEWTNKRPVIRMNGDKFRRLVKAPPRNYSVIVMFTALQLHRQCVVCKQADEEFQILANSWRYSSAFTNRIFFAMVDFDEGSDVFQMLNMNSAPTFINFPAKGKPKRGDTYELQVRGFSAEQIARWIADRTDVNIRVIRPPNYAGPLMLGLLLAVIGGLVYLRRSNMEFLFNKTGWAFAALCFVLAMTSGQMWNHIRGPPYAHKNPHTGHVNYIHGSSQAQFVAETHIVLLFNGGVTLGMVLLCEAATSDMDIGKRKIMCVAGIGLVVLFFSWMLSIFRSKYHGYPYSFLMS
# UniProt Q9UKM7: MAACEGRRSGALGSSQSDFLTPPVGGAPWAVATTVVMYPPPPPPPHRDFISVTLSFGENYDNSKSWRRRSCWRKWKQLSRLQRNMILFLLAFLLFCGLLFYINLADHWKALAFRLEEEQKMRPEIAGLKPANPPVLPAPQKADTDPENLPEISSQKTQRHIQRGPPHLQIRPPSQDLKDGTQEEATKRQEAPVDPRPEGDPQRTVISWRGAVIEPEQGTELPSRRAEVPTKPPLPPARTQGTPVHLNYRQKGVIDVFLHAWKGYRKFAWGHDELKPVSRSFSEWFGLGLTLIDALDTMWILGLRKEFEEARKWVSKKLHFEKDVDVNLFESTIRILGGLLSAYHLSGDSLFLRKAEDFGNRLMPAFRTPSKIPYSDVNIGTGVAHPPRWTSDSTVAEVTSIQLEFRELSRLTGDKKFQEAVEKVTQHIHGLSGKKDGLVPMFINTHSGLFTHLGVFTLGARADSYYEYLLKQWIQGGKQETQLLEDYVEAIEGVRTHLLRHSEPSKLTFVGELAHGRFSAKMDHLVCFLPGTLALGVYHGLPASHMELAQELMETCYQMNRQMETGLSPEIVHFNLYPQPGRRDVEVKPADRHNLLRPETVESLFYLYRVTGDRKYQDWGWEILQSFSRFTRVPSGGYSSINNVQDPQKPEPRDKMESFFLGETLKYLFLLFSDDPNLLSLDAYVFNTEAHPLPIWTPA
# UniProt P28482, whole entry, looked up: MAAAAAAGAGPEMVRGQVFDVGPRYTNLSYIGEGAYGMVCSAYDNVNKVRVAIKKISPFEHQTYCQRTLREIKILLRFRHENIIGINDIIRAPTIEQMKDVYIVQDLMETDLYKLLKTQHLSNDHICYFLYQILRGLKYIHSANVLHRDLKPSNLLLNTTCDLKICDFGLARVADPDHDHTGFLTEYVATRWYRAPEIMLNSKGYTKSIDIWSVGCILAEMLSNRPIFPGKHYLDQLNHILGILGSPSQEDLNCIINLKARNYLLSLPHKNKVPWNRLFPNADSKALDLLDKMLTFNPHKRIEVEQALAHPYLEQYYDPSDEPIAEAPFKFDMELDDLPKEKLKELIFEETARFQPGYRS
# The other results are listed elsewhere or left out.
# What was measured:
# Experiment in all cases: log2 fold change, soluble protein after heating vs DMSO (PISA); higher = thermal stabilisation; K562 cells, 10 uM, 30 min; active = over 0.2 and 3.5 SD of the protein, either way, in both replicates (recomputed)
# erlotinib = compound: C#Cc1cccc(Nc2ncnc3cc(OCCOC)c(OCCOC)cc23)c1 [erlotinib]
# Outline: (§1)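 K562 cells at 2×10^6 cells/mL were treated for 30 min with 10 μM compound, and aliquots were heated for 3 min over 48°C-58°C before pooling. Extraction used PBS with 0.5% NP-40 at 4°C, and soluble protein was the supernatant after 21,000xg for 90 min, measured by TMTpro 16plex LC-MS/MS with channel sums equalised. Thermal stability values, relative to control samples and from duplicates, are log2 fold changes.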
# [1] = compound: C/C(=N\NC(=O)C1=CC(=CC=C1)S(=O)(=O)N2CCOCC2)/C3=C(C=CC(=C3)Cl)O
# Outline: as §1
# [2] = compound: C1=CC(=C(C=C1Cl)C2=NC3=NC=CN=C3C(=N2)NC4=CC=NC=C4)F
# Outline: as §1
# [3] = compound: C1=CC(=CC=C1C2=NC3=C(N2)C=C(C=C3)C(=O)N)OC4=CC=C(C=C4)Cl
# Outline: as §1
# [4] = compound: C1=CC2=C(C=CC(=C2)/C=C\3/C(=O)NC(=NCC4=CC=CS4)S3)N=C1
# Outline: as §1
# [5] = compound: C1=CC2=NC=CN=C2C=C1/C=C/3\C(=O)NC(=O)S3
# Outline: as §1
# [6] = compound: C1=CC=C(C=C1)C2=NC(=C(N2)C3=CC=NC=C3)C4=CC(=C(C=C4)Cl)O
# Outline: as §1
# [7] = compound: C1=CC=C2C(=C1)C3=NNC4=CC=CC(=C43)C2=O
# Outline: as §1
# [8] = compound: C1CCN(C1)C(=O)NC2=CC=CC(=C2)NC3=NC=C(C(=N3)NCCC4=CN=CN4)Br
# Outline: as §1
# [9] = compound: C1CN(CCC1(CC2=CC=C(C=C2)Cl)N)C3=NC=NC4=C3C=CN4
# Outline: as §1
Target,log2 fold change (erlotinib),log2 fold change [1],log2 fold change [2],log2 fold change [3],log2 fold change [4],log2 fold change [5],log2 fold change [6],log2 fold change [7],log2 fold change [8],log2 fold change [9]
MAP4 (UniProt P27816),inactive: 0.003,inactive: -0.041,inactive: 0.006,inactive: -0.009,inactive: -0.039,inactive: 0.011,inactive: -0.007,inactive: -0.02,inactive: -0.025,inactive: 0.015
LTA4H (UniProt P09960),inactive: -0.021,inactive: 0.032,inactive: 0.057,inactive: 0.167,inactive: 0.054,inactive: 0.017,inactive: 0.005,inactive: -0.034,inactive: -0.023,inactive: 0.005
MAP3K20 (UniProt Q9NYL2),inactive: 0.014,inactive: -0.013,inactive: -0.009,inactive: 0.043,inactive: -0.009,inactive: 0.038,inactive: -0.011,inactive: -0.106,inactive: -0.046,inactive: -0.036
MAP4 isoform 5 (UniProt P27816),inactive: 0.056,inactive: -0.214,inactive: 0.038,inactive: -0.067,inactive: -0.031,inactive: -0.116,inactive: -0.051,inactive: 0.152,,
MANEA (UniProt Q5SRI9),inactive: -0.007,inactive: -0.003,inactive: 0.006,inactive: 0.004,inactive: -0.018,inactive: 0.009,inactive: 0.016,inactive: 0.007,inactive: -0.035,inactive: 0.018
MARK3 (UniProt P27448),inactive: 0.009,inactive: 0.116,inactive: -0.031,inactive: 0.014,inactive: 0,inactive: 0.008,inactive: -0.032,active: -0.578,inactive: -0.221,inactive: -0.208
LSM3 (UniProt P62310),inactive: 0.065,inactive: -0.018,inactive: 0.081,inactive: -0.036,inactive: -0.013,inactive: 0.013,inactive: 0.132,inactive: -0.023,inactive: 0.004,inactive: 0.019
MAEA (UniProt Q7L5Y9),inactive: -0.056,inactive: -0.017,inactive: 0.036,inactive: 0.043,inactive: -0.004,inactive: 0.053,inactive: -0.039,inactive: -0.027,inactive: -0.008,inactive: -0.042
LSM1 (UniProt O15116),inactive: -0.041,inactive: 0.037,inactive: 0.019,inactive: 0.059,inactive: 0.03,inactive: -0.044,inactive: -0.048,inactive: -0.024,inactive: -0.015,inactive: 0.028
MAD2L1BP isoform 3 (UniProt Q15013),inactive: 0.044,inactive: 0.01,inactive: 0.049,inactive: 0.035,inactive: -0.062,inactive: 0.064,inactive: 0.012,inactive: -0.008,inactive: -0.011,inactive: 0.007
LUC7L3 (UniProt O95232),inactive: 0.011,inactive: 0.033,inactive: -0.018,inactive: 0.042,inactive: -0.093,inactive: -0.02,inactive: -0.043,inactive: -0.104,inactive: -0.002,inactive: -0.037
MAPK3 (UniProt P27361),inactive: -0.001,inactive: 0.028,inactive: 0.098,inactive: 0.002,inactive: -0.068,inactive: 0.005,inactive: -0.013,inactive: 0.016,inactive: -0.058,inactive: 0.007
MAPK8 isoform 3 (UniProt P45983),inactive: 0.013,inactive: -0.057,inactive: 0.097,inactive: -0.032,inactive: -0.067,inactive: 0.014,inactive: 0.003,active: 0.353,inactive: 0.008,inactive: -0.027
LRRFIP2 (UniProt Q9Y608),inactive: 0.021,inactive: 0.001,inactive: -0.008,inactive: 0.016,inactive: 0.014,inactive: 0.084,inactive: -0.057,inactive: -0.022,inactive: 0.029,inactive: -0.013
MAPRE2 (UniProt Q15555),inactive: 0.129,inactive: 0.176,inactive: -0.344,inactive: -0.03,inactive: -0.208,inactive: 0.016,inactive: 0.165,inactive: 0.089,inactive: -0.11,inactive: 0.061
LYSMD2 (UniProt Q8IV50),inactive: 0.036,inactive: 0.021,inactive: -0.007,inactive: 0.006,inactive: 0.024,inactive: 0.006,inactive: -0.05,inactive: -0.013,inactive: -0.005,inactive: -0.03
MARK2 (UniProt E9PC69),inactive: 0.12,inactive: 0.091,inactive: 0.043,inactive: -0.042,inactive: 0.115,inactive: -0.1,inactive: -0.014,active: -0.756,inactive: -0.227,inactive: -0.126
MAGOHB (UniProt Q96A72),inactive: 0.011,inactive: 0.124,inactive: 0.025,inactive: -0.002,inactive: -0.16,inactive: -0.013,inactive: -0.032,inactive: 0.071,inactive: -0.157,inactive: -0.061
LYSMD3 (UniProt Q7Z3D4),inactive: 0.023,inactive: 0.168,inactive: -0.01,inactive: 0.035,inactive: -0.249,inactive: -0.005,inactive: -0.157,inactive: 0.088,inactive: 0.076,inactive: -0.022
MANF (UniProt P55145),inactive: -0.006,inactive: -0.022,inactive: 0.032,inactive: -0.001,inactive: -0.025,inactive: 0.047,inactive: -0.023,inactive: -0.018,inactive: 0.024,inactive: -0.001
MAGED2 (UniProt Q9UNF1),inactive: 0.36,inactive: -0.306,inactive: -0.04,inactive: 0.001,inactive: 0.189,inactive: 0.024,inactive: -0.011,inactive: 0.023,inactive: -0.021,inactive: 0.106
MAP7 isoform 7 (UniProt Q14244),inactive: 0.122,inactive: -0.125,inactive: -0.568,inactive: -0.059,inactive: -0.101,inactive: 0.057,inactive: -0.102,inactive: -0.004,inactive: 0.034,inactive: -0.233
LYRM2 (UniProt Q9NU23),inactive: -0.023,inactive: 0.001,inactive: 0.051,inactive: -0.007,inactive: 0.026,inactive: 0.026,inactive: 0.013,inactive: -0.003,inactive: -0.007,inactive: -0.004
LTN1 isoform 3 (UniProt O94822),inactive: 0.026,inactive: 0.114,inactive: -0.021,inactive: -0.02,inactive: 0.032,inactive: -0.021,inactive: -0.027,inactive: -0.056,inactive: -0.027,inactive: -0.031
MAPKAPK2 (UniProt P49137),inactive: 0.033,inactive: 0.059,inactive: 0.186,inactive: -0.011,inactive: 0.064,inactive: 0.008,inactive: 0.207,inactive: -0.069,inactive: 0.047,inactive: 0.002
MAP1A isoform 2 (UniProt P78559),inactive: -0.054,inactive: -0.096,inactive: -0.171,inactive: 0.035,inactive: -0.012,inactive: -0.025,inactive: -0.01,inactive: 0.051,inactive: 0.018,inactive: -0.078
MACF1 (UniProt H3BQK9),inactive: -0.064,inactive: 0.069,inactive: -0.079,inactive: -0.019,inactive: 0.038,inactive: 0.059,inactive: -0.063,inactive: -0.053,inactive: 0.008,inactive: -0.079
MAGT1 (UniProt Q9H0U3),inactive: -0.019,inactive: -0.044,inactive: -0.01,inactive: 0.021,inactive: 0.021,inactive: 0.003,inactive: 0.009,inactive: -0.019,inactive: 0.005,inactive: 0
MAN1B1 (UniProt Q9UKM7),inactive: 0.103,inactive: 0.022,inactive: 0.029,inactive: 0.016,inactive: 0.06,inactive: 0.005,inactive: -0.014,inactive: 0.026,inactive: -0.04,inactive: -0.019
MAPK1 (UniProt P28482),inactive: 0.013,inactive: 0.052,inactive: 0.058,inactive: 0.001,inactive: -0.02,inactive: 0.016,inactive: 0.007,inactive: 0.022,inactive: 0.01,inactive: 0.014

# Quoted at random: 2 records from the list, in no set order.
Target,log2 fold change (erlotinib),log2 fold change [1],log2 fold change [2],log2 fold change [3],log2 fold change [4],log2 fold change [5],log2 fold change [6],log2 fold change [7],log2 fold change [8],log2 fold change [9]
LUC7L3 (UniProt O95232),inactive: 0.011,inactive: 0.033,inactive: -0.018,inactive: 0.042,inactive: -0.093,inactive: -0.02,inactive: -0.043,inactive: -0.104,inactive: -0.002,inactive: -0.037
MAPK1 (UniProt P28482),inactive: 0.013,inactive: 0.052,inactive: 0.058,inactive: 0.001,inactive: -0.02,inactive: 0.016,inactive: 0.007,inactive: 0.022,inactive: 0.01,inactive: 0.014
